From US20230227838A1, “ENHANCED CELL SURVIVAL AGAINST BIOTIC AND ABIOTIC STRESSES THROUGH SALICYLICK ACID-INDUCED NPR1 CONDENSATES” (priority 2020, published 2023)

Test system: sim3-GFP
Test: Quantitative LC-MS/MS of sim3-GFP interactome (SINC components)
Set-up: species or system Arabidopsis thaliana
Conditions: protein enrichment in the sim3-GFP interactome (SINC components), SA-treated samples versus mock

Row | Molecule | Normalized Fold Change: SA vs Mock
1 | AT5G14250 (protein, UniProt Q8W575 1-429, looked up) COP9 signalosome complex …: MIGAVNSVEAVITSIQGLSGSPEDLSALHDLLRGAQDSLRAEPGVNFSTLDQLDASKHSLGYLYFLEVLTCGPVSKEKAAYEIPIIARFINSCDAGQIRLASYKFVSLCKILKDHVIALGDPLRGVGPLLNAVQKLQVSSKRLTALHPDVLQLCLQAKSYKSGFSILSDDIVEIDQPRDFFLYSYYGGMICIGLKRFQKALELLYNVVTAPMHQVNAIALEAYKKYILVSLIHNGQFTNTLPKCASTAAQRSFKNYTGPYIELGNCYNDGKIGELEALVVARNAEFEEDKNLGLVKQAVSSLYKRNILRLTQKYLTLSLQDIANMVQLGNAKEAEMHVLQMIQDGQIHALINQKDGMVRFLEDPEQYKSSEMIEIMDSVIQRTIGLSKNLLAMDESLSCDPLYLGKVGRERQRYDFGDDFDTVPQKFSM | 2.754
2 | AT5G45110 (protein) MATLTEPSSSLSFTSSHFSYGSIGSNHFSSSSASNPEVVSLTKLSSNLEQLLSNSDCDYSDAEIIVDGVPVGVHRCILAARSKFFQDLFKKEKKISKTEKPKYQLREMLPYGAVAHEAFLYFLSYIYTGRLKPFPLEVSTCVDPVCSHDCCRPAIDFVVQLMYASSVLQVPELVSSFQRRLCNFVEKTLVENVLPILMVAFNCKLTQLLDQCIERVARSDLYRFCIEKEVPPEVAEKIKQLRLISPQDEETSPKISEKLLERIGKILKALDSDDVELVKLLLTESDITLDQANGLHYSVVYSDPKVVAEILALDMGDVNYRNSRGYTVLHFAAMRREPSIIISLIDKGANASEFTSDGRSAVNILRRLTNPKDYHTKTAKGRESSKARLCIDILEREIRKNPMVLDTPMCSISMPEDLQMRLLYLEKRVGLAQLFFPTEAKVAMDIGNVEGTSEFTGLSPPSSGLTGNLSQVDLNETPHMQTQRLLTRMVALMKTVETGRRFFPYGSEVLDKYMAEYIDDDILDDFHFEKGSTHERRLKRMRYRELKDDVQKAYSKDKESKIARSCLSASSSPSSSSIRDDLHNTT | 9.396
3 | AT2G29570 (protein, UniProt Q9ZW35 1-264, looked up) Proliferating cell nuclear …: MLELRLVQGSLLKKVLEAVKDLVNDANFDCSTTGFSLQAMDSSHVALVSLLLRSEGFEHYRCDRNLSMGMNLGNMSKMLKCAGNDDIITIKADDGSDTVTFMFESPTQDKIADFEMKLMDIDSEHLGIPDAEYHSIVRMPSGEFSRICKDLSSIGDTVVISVTKEGVKFSTAGDIGTANIVLRQNTTVDKPEDAIVIEMNEPVSLSFALRYMNSFTKATPLSETVTISLSSELPVVVEYKVAEMGYIRYYLAPKIEEEEDTKPE | 2.831
4 | AT1G02450 (protein, UniProt Q9FNZ5 1-142, looked up) Protein NIM1-INTERACTING 1: MYPKQFSLYNYSLETMSKDENVESKETIRVDKRVREDEEEEEEKKIDTFFKLIKHYQEARKRRREELAENSGVVRRKSNGGERSGIVVPAFQPEDFSQCRTGLKPPLMFVSDHKEENTKVEQEEDQTEERNEDKALDLNLAL | 17.72
5 | AT2G14560 (protein, UniProt Q9ZQR8 1-207, looked up) Protein LURP1: MQQPCVIVGSKYCSPNPVGLAIVRKVMKITDGNFVITSADGKLLFKVKDPLFSLHGKRILLDCSGAKVLTLRGKMMTMHDRWQVFRGGSTEEGALLYTVKRSSMIQLAPKLEVFLANNVEEKICDFKVKGAWLDDSCVVYAGDSDTIIAHMCGKQTMRGFFFGKDHFSVTVDKNVDYAFIASLIVILVEIEKAGFITKMTTQMIIGF | 4.63
6 | AT2G14610 (protein) QDSPQDYLRVHNQARGAVGVGPMQWDERVAAYARSYAEQLRGNCRLIHSGGPYGENLAWGSGDLSGVSAVNMWVSEKANYNYAANTCNGVCGHYTQVVWRKSVRLGCAKVRCNNGGTIISCNYDPRGNYVNEKPY | 3.648
7 | AT2G24850 (protein, UniProt Q9SK47 1-445, looked up) Probable aminotransferase TAT3: MASNGVTNCNANANVWRFKGNGATSDAAAVTLRKLAFGMFKNCTMNSGKTILFPTPGEPSAHSNFRTCPEAEEAVAAAARSGMANSYAPSPGVFKARRAVAEYLNGELPTKLKAEDVYITGGCNQAIEIVIDSLAGNPSANILLPRPGYPHYDARAVYSGLEIRKYDLLPESDWEINLDGLEAAADENTVAMVIINPNNPCGNVYTYDHLNKVAEMARKLGIMIISDEVYDHVVYGDKPFIPMGKFASIAPVITLGSISKGWVNPGWRVGWIAMNDPNGIFVSTGVVQAIEDFLDLTPQPSFILQEALPDILEKTPKEFFEKKIKAMRRNVELSCERLKDIPCLFCPKKPESCSYLWLKLDTSMLNNIKNDFDFCTKLVSEESLILIPGVALGAENWVRISIGTDESVVQEIFDRLKGFYDRHAISKEAIKLSGHAINQIVVSVN | 18.45
8 | AT3G18520 (protein, UniProt Q8GXJ1 1-552, looked up) Histone deacetylase 15: MVVETIERSCEGSKRRHVNGGDIAVPCSGEECSNGDINVAPGVSAKRARVSREMTFEDIYGADALLNDDDDEDDDCDWEPVQAPMEFVKWCCVNCTMSNPGDMVHCCICGEHKESGILRHGYLASPFFKDTGLIEVEEKYGGSSSATSSTAVGFDERMLLHSEFEVKAQPHPERPDRLRAIAASLATAGVFPGRCLPINAREITKQELQMVHTSEHVDAVDTTSQLLYSYFTSDTYANEYSARAARLAAGLCADLATDIFTGRVKNGFALVRPPGHHAGVRHAMGFCLHNNAAVAALVAQAAGAKKVLIVDWDVHHGNGTQEIFEQNKSVLYISLHRHEGGNFYPGTGAADEVGSNGGEGYCVNVPWSCGGVGDKDYIFAFQHVVLPIASAFSPDFVIISAGFDAARGDPLGCCDVTPAGYSRMTQMLGDLCGGKMLVILEGGYNLRSISASATAVIKVLLGENPENELPIATTPSVAGLQTVLDVLNIQLEFWPSLAISYSKLLSELEARLIENKKNQMKRKVVRVPTWWKWGRKKLLYNFLSARMISRSK | 2572.7625
9 | AT3G52430 (protein) MDDCRFETSELQASVMISTPLFTDSWSSCNTANCNGSIKIHDIAGITYVAIPAVSMIQLGNLVGLPVTGDVLFPGLSSDEPLPMVDAAILKLFLQLKIKEGLELELLGKKLVVITGHSTGGALAAFTALWLLSQSSPPSFRVFCITFGSPLLGNQSLSTSISRSRLAHNFCHVVSIHDLVPRSSNEQFWPFGTYLFCSDKGGVCLDNAGSVRLMFNILNTTATQNTEEHQRYGHYVFTLSHMFLKSRSFLGGSIPDNSYQAGVALAVEALGFSNDDTSGVLVKECIETATRIVRAPILRSAELANELASVLPARLEIQWYKDRCDASEEQLGYYDFFKRYSLKRDFKVNMSRIRLAKFWDTVIKMVETNELPFDFHLGKKWIYASQFYQLLAEPLDIANFYKNRDIKTGGHYLEGNRPKRYEVIDKWQKGVKVPEECVRSRYASTTQDTCFWAKLEQAKEWLDEARKESSDPQRRSLLREKIVPFESYANTLVTKKEVSLDVKAKNSSYSVWEANLKEFKCKMGYENEIEMVVDESDAMET | 3.228
10 | AT4G16950 (protein, UniProt F4JNB7 1-1449, looked up) Disease resistance protein …: MAASSSSGRRRYDVFPSFSGVDVRKTFLSHLIEALDGKSINTFIDHGIERSRTIAPELISAIREARISIVIFSKNYASSTWCLNELVEIHKCFNDLGQMVIPVFYDVDPSEVRKQTGEFGKVFEKTCEVSKDKQPGDQKQRWVQALTDIANIAGEDLLNGPNEAHMVEKISNDVSNKLITRSKCFDDFVGIEAHIEAIKSVLCLESKEARMVGIWGQSGIGKSTIGRALFSQLSIQFPLRAFLTYKSTSGSDVSGMKLSWEKELLSEILGQKDIKIEHFGVVEQRLKHKKVLILLDDVDNLEFLKTLVGKAEWFGSGSRIIVITQDRQFLKAHDIDLVYEVKLPSQGLALTMLCRSAFGKDSPPDDFKELAFEVAKLAGHLPLGLNVLGSSLRRRGKKEWMEMMPRLRNGLNGDIMKTLRVSYDRLHQKDQDMFLCIACLFNGFEVSYVKDLLEDNVGLTMLSEKSLIRITPDGHIEMHNLLEKLGREIDRAKSKGNPGKRQFLTNFEDIHEVVTEKTGTETLLGIRLPFEEYFSTRPLLIDKESFKGMRNLQYLKIGDWSDGGQPQSLVYLPLKLRLLDWDDCPLKSLPSTFKAEYLVNLIMKYSKLEKLWEGTLPLGSLKKMNLLCSKNLKEIPDLSNARNLEELDLEGCESLVTLPSSIQNAIKLRKLHCSGVILIDLKSLEGMCNLEYLSVDCSRVEGTQGIVYFPSKLRLLLWNNCPLKRLHSNFKVEYLVKLRMENSDLEKLWDGTQPLGRLKQMFLRGSKYLKEIPDLSLAINLEEVDICKCESLVTFPSSMQNAIKLIYLDISDCKKLESFPTDLNLESLEYLNLTGCPNLRNFPAIKMGCSDVDFPEGRNEIVVEDCFWNKNLPAGLDYLDCLMRCMPCEFRPEYLVFLNVRCYKHEKLWEGIQSLGSLEEMDLSESENLTEIPDLSKATNLKHLYLNNCKSLVTLPSTIGNLQKLVRLEMKECTGLEVLPTDVNLSSLETLDLSGCSSLRTFPLISKSIKWLYLENTAIEEILDLSKATKLESLILNNCKSLVTLPSTIGNLQNLRRLYMKRCTGLEVLPTDVNLSSLGILDLSGCSSLRTFPLISTNIVWLYLENTAIGEVPCCIEDFTRLRVLLMYCCQRLKNISPNIFRLRSLMFADFTDCRGVIKALSDATVVATMEDSVSCVPLSENIEYTCERFWGELYGDGDWDLGTEYFSFRNCFKLDRDARELILRSCFKPVALPGGEIPKYFTYRAYGDSLTVTLPRSSLSQSFLRFKACLVVDPLSEGKGFYRYLEVNFGFNGKQYQKSFLEDEELEFCKTDHLFFCSFKFESEMTFNDVEFKFCCSNRIKECGVRLMYVSQETEYNQQTTRSKKRMRMTSGTSEEYINLAGDQIVADTGLAALNMELSLGEGEASSSTSLEGEALSVDYMITKEQDEDIPFLDPVSDGTWRSFYSAE | 3.792
11 | AT5G57560 (protein, UniProt Q38857 22-284, looked up) Xyloglucan …: NFQRDVEITWGDGRGQIKNNGELLTLSLDKSSGSGFQSKNEYLFGKVSMQMKLVPGNSAGTVTTLYLKSPGTTWDEIDFEFLGNSSGEPYTLHTNVYTQGKGDKEQQFKLWFDPTANFHTYTILWNPQRIIFTVDGTPIREFKNMESLGTLFPKNKPMRMYSSLWNADDWATRGGLVKTDWSKAPFTASYRGFQQEACVWSNGKSSCPNASKQGTTTGSWLSQELDSTAQQRMRWVQRNYMIYNYCTDAKRFPQGLPKECLAA | 102.4
12 | AT1G02930 (protein) MAGIKVFGHPASTATRRVLIALHEKNVDFEFVHVELKDGEHKKEPFILRNPFGKVPAFEDGDFKIFESRAITQYIAHEFSDKGNNLLSTGKDMAIIAMGIEIESHEFDPVGSKLVWEQVLKPLYGMTTDKTVVEEEEAKLAKVLDVYEHRLGESKYLASDHFTLVDLHTIPVIQYLLGTPTKKLFDERPHVSAWVADITSRPSAQKVL | 2.009
